# Laboratory results: patent US20090105149A1, “Compounds comprising lpa” (ENKAM PHARMACEUTICALS A/S, priority 2003, published 2009)
# Protein sequences, listed by entry. Tags and fused reporters are not part of them. Lines headed by an entry give the natural chain unless they say otherwise; changes in a name come on top. Chains listed by the source or under a name are the forms on record and can include a tag or linker.
# rat FGFR1 (IIIC isoform) fused to the N-terminal of hexahistidine, expressed in transfected HEK293 cells (Q04589, form named): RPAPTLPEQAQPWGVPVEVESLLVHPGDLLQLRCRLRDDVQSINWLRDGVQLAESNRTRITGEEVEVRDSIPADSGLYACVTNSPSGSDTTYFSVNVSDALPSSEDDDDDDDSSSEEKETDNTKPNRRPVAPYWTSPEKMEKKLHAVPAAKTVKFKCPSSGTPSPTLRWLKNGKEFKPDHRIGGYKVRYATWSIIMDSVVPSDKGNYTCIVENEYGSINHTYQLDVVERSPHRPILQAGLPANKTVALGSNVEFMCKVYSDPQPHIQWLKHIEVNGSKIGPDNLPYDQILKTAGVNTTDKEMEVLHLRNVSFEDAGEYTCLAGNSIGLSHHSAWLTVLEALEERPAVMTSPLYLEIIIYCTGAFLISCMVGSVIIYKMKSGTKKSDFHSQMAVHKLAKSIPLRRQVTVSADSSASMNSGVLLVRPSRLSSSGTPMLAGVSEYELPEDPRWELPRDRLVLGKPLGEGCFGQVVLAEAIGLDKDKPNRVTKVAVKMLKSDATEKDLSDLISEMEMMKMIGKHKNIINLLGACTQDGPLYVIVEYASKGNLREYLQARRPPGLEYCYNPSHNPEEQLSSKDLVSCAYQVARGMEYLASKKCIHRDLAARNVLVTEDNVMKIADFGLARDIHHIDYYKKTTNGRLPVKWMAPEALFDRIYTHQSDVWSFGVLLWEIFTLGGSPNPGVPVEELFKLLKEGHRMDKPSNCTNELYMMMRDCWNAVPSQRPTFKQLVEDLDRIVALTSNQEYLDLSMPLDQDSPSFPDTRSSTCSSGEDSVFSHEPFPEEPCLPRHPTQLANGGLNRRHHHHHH
# No constants are given. Whether binding was seen depends on the method and setting. Some binding calls cover weakened binding; strength is not graded here.
# Molecular target: rat FGFR1 (IIIC isoform) fused to the N-terminal of hexahistidine, expressed in transfected HEK293 cells (rat) (UniProt Q04589)
# Assay: HEK293 cells transfected with rat FGFR1 (IIIC)-His6, stimulated with EFL monomer; the only readout described is receptor phosphorylation
binder,measurement,value
"NIEVWVEAENALGKKV [EFL peptide (peptide of SEQ ID NO: 2), individual monomer]",binding,binds
